According to patent publication US20100331545A1, “REGULATOR FOR SIGNALING TOLL-LIKE RECEPTOR, WHICH COMPRISES CATHEPSIN INHIBITOR AS ACTIVE INGREDIENT” (NIPPON CHEMIPHAR CO., LTD., priority 2007, published 2010):

Test system: rat model of adjuvant arthritis
Experiment: Rat adjuvant arthritis, oral NC-2300 compared with alendronate
Format: in vivo
Settings: pQCT day 36
Description: NC-2300 was orally administered to a rat model of adjuvant arthritis, and was compared with alendronate in pharmacological test. Rats were injected with complete Freund's adjuvant on day 0. NC-2300, alendronate or vehicle was administered to the rats at the indicated doses daily starting on day 0 up to day 35.
The proximal tibia was radiologically examined (using soft X-rays) on day 36 to measure the effect of NC-2300 or alendronate on periarticular osteoporosis to measure effect of NC-2300 or alendronate on periarticular osteoporosis. Bone mineral density of the proximal tibia assessed by pQCT (day 36).
Assessment for hind paws of adjuvant arthritis rats treated with NC-2300 or vehicle.
Adjuvant arthritis in hind paw administered with NC-2300 or vehicle was evaluated.
Recovery of locomotion activity of arthritic rats by NC-2300 (day 35) was measured.

Structure (SMILES): NCCCC(O)(P(=O)(O)O)P(=O)(O)O [alendronate, reference compound]
- periarticular osteoporosis in the proximal tibia (bone mineral density): comparable inhibitory effect
